# Reference: paper PMC12703733 (Journal of Medicinal Chemistry, 2025)
# HELM strings list residues between dots; [ac] is acetyl, [am] amide, other brackets name non-standard units. Bridge positions count the residues as written; N and C are the ends. Square brackets hold non-standard residues; d marks the D form. Pro(cis-4-guanidino) = NC(N)=N[C@@H]1CN[C@H](C(=O)O)C1; Phe(4-guanidino) = N=C(N)Nc1ccc(C[C@H](N)C(=O)O)cc1
# Test: general procedure: Fmoc solid-phase peptide synthesis; Fmoc-Leu-Rink Amide Resin (0.64 mmol/g, 100–200 mesh); COMU, OxymaPure, DIEA
# Conditions: whole synthesis, 220 nm, scale of the general procedure 0.25 mmol
row,Substance,final HPLC purity [%]
1,H-FV[Pro(cis-4-guanidino)]WFKKF[dL][dE]RIL-NH2 (lactam 6-10; SMILES CC[C@H](C)[C@H](NC(=O)[C@H](CCCNC(=N)N)NC(=O)[C@H]1CCC(=O)NCCCC[C@H](NC(=O)[C@H](Cc2ccccc2)NC(=O)[C@H](Cc2c[nH]c3ccccc23)NC(=O)[C@@H]2C[C@H](NC(=N)N)CN2C(=O)[C@@H](NC(=O)[C@@H](N)Cc2ccccc2)C(C)C)C(=O)N[C@@H](CCCCN)C(=O)N[C@@H](Cc2ccccc2)C(=O)N[C@H](CC(C)C)C(=O)N1)C(=O)N[C@@H](CC(C)C)C(N)=O),>95
2,H-[Phe(4-guanidino)]VPWFKKF[dL][dE]RIL-NH2 (lactam 6-10; SMILES CC[C@H](C)[C@H](NC(=O)[C@H](CCCNC(=N)N)NC(=O)[C@H]1CCC(=O)NCCCC[C@H](NC(=O)[C@H](Cc2ccccc2)NC(=O)[C@H](Cc2c[nH]c3ccccc23)NC(=O)[C@@H]2CCCN2C(=O)[C@@H](NC(=O)[C@@H](N)Cc2ccc(NC(=N)N)cc2)C(C)C)C(=O)N[C@@H](CCCCN)C(=O)N[C@@H](Cc2ccccc2)C(=O)N[C@H](CC(C)C)C(=O)N1)C(=O)N[C@@H](CC(C)C)C(N)=O),>96
3,"PEPTIDE1{F.V.P.W.F.K.K.F.[dL].[dK].R.I.L.[am]}|CHEM1{[CNH]}$PEPTIDE1,CHEM1,6:R3-1:R1|PEPTIDE1,CHEM1,10:R3-1:R2$$$V2.0",>98
